At least one structure is not confirmed: it was looked up by name or label, or the drawing left a doubt.
Experiment: Excitation and emission maxima of the dyes
Format: physicochemical

Structure (SMILES) | excitation maximum | emission maximum [nm]
C(/C=C/C=C/c1ccccc1)=C\C=C\c1ccccc1 [DPO, Diphenyloctatetrene] | about 430 nm | –
C(=C\C=C\c1ccccc1)/C=C/c1ccccc1 [DPH, Diphenylhexatriene] | 350 nm | 440
Cc1ccc(C(=O)C=Cc2ccc(N(C)C)cc2)cc1 [4-Dimethylamino methylchalcone] | 420 nm | 490
